In publication PMC11480952 one finds binding data, which are given here for five substances.

Protein sequences, listed by entry. Tags and fused reporters are not part of them.
UniProt P38936: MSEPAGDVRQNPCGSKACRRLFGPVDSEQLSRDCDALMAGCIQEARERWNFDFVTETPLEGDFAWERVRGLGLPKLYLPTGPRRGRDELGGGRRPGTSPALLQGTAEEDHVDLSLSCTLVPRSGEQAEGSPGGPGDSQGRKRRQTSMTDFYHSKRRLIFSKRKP
UniProt P13010: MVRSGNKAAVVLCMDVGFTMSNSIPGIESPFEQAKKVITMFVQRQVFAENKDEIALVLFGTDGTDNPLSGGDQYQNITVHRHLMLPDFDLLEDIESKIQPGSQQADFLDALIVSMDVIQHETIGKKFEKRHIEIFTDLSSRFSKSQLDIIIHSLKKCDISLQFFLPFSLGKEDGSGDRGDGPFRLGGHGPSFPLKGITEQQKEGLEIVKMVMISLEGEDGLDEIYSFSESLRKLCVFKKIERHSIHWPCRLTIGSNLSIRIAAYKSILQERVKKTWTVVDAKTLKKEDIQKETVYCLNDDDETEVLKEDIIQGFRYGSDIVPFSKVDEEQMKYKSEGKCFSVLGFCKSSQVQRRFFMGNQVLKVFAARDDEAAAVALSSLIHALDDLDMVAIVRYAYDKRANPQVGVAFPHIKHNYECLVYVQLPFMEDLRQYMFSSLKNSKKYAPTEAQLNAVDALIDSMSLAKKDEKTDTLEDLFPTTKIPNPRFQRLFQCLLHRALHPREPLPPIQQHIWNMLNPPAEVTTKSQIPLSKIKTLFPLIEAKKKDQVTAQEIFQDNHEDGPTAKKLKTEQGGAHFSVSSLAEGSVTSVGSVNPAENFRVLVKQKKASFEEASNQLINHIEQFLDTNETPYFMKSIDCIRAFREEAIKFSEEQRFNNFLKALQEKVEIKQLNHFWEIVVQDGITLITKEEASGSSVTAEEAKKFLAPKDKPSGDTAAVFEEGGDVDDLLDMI
UniProt Q15915: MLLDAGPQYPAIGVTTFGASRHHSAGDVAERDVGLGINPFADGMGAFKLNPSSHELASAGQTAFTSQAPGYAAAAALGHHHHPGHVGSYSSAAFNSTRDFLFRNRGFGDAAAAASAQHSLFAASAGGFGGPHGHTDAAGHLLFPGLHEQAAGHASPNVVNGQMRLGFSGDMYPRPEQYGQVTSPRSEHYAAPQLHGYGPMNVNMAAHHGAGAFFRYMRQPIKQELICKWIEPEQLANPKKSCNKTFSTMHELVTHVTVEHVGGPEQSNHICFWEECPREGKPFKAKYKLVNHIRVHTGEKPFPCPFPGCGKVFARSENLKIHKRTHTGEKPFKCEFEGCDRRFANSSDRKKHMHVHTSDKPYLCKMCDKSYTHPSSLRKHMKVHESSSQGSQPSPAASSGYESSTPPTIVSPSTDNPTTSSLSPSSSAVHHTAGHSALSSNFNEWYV
UniProt Q13185: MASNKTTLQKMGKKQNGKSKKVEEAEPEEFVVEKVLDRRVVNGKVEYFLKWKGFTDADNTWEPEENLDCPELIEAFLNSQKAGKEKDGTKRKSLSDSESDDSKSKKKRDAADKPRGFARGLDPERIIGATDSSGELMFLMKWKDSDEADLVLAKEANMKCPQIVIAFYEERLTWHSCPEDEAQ
UniProt Q15796: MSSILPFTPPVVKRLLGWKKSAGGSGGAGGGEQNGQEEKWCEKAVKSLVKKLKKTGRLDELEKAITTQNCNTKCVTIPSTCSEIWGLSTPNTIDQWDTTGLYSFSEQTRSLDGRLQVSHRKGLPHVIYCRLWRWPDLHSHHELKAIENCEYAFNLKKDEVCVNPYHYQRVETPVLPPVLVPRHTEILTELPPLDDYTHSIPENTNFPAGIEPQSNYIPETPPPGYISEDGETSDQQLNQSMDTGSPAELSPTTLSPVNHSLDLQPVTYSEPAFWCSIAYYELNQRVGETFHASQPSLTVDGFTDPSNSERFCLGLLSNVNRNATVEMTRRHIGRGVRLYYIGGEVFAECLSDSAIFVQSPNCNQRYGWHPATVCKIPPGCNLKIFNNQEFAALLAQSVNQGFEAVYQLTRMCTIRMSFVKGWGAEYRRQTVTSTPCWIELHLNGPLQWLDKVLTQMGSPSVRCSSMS

These are yes or no findings as the source states them, for the method shown. Binding seen in cells or lysates may run through a third protein. Some entries that bind do so weakly or less than the wild type.

This experiment deals with serine/threonine protein kinase ARAF (v-raf murine sarcoma 3611 viral oncogene homolog) (human (endogenous in liver cancer cells)) (UniProt P10398). The experiment is described as follows: co-IP; co-immunoprecipitation with anti-ARAF, Western blot; liver cancer cells of the rLV group and the rLV-CARM1 (CARM1 overexpressing) group compared.
Turning to “P21WAF1/Cip1 (from UniProt P38936 1-164)”, the binding result is given as “binds”. Under XRCC5 (from UniProt P13010 1-732) stands “binds”.

Consider ZIC1 (from UniProt Q15915 1-447), for which the binding entry is reported as “binds”.

As to CBX3 (from UniProt Q13185 1-183), the binding result is reported as “binds”. Under SMAD2 (from UniProt Q15796 1-467) stands “binds”.
